# Reference: the supplement of paper PMC12819154, “High-throughput peptide-centric local stability assay extends protein–ligand identification to membrane proteins, tissues and bacteria” (Nature Structural & Molecular Biology, 2025)
# By UniProt entry, the sequences of proteins in these tests, tags left out. Where a name states a change or a piece, a line headed by the entry shows the natural chain unless it says otherwise.
# UniProt Q923M0: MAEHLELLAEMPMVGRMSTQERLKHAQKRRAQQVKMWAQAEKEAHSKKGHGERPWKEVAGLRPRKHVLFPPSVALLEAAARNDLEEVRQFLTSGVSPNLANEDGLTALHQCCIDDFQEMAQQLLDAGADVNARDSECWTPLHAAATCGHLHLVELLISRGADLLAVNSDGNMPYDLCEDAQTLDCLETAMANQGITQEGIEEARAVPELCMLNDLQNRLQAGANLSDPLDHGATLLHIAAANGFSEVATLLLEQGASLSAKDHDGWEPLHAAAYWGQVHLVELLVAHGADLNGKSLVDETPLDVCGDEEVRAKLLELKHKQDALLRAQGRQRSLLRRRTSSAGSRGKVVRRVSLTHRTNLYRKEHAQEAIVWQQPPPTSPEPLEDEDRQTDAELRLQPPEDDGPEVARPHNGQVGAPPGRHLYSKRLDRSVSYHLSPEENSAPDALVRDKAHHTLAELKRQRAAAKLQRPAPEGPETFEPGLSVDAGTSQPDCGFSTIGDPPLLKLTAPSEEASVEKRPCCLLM
# UniProt Q923W1: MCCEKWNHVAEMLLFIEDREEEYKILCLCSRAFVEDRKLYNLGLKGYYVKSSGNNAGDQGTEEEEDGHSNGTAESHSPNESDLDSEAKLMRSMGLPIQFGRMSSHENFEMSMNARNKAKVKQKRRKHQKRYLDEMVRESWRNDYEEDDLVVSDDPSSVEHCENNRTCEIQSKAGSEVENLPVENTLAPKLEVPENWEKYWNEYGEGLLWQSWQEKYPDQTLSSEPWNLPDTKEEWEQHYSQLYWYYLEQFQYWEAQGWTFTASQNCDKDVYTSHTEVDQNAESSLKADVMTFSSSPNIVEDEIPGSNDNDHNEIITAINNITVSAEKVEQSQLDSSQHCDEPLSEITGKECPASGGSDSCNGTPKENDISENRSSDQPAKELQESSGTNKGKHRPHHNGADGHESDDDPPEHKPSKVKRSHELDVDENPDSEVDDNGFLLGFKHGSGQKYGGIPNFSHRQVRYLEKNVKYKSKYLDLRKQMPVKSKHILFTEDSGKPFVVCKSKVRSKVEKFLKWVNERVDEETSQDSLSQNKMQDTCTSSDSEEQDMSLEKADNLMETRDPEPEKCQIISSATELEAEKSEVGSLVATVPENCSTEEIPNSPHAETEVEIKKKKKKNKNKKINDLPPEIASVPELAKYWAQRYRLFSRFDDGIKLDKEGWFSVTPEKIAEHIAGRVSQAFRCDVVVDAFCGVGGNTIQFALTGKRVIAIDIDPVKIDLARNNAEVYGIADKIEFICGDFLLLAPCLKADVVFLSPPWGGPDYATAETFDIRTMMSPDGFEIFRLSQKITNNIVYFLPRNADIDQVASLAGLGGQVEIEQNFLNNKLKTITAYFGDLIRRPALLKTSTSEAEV
# UniProt Q99K41: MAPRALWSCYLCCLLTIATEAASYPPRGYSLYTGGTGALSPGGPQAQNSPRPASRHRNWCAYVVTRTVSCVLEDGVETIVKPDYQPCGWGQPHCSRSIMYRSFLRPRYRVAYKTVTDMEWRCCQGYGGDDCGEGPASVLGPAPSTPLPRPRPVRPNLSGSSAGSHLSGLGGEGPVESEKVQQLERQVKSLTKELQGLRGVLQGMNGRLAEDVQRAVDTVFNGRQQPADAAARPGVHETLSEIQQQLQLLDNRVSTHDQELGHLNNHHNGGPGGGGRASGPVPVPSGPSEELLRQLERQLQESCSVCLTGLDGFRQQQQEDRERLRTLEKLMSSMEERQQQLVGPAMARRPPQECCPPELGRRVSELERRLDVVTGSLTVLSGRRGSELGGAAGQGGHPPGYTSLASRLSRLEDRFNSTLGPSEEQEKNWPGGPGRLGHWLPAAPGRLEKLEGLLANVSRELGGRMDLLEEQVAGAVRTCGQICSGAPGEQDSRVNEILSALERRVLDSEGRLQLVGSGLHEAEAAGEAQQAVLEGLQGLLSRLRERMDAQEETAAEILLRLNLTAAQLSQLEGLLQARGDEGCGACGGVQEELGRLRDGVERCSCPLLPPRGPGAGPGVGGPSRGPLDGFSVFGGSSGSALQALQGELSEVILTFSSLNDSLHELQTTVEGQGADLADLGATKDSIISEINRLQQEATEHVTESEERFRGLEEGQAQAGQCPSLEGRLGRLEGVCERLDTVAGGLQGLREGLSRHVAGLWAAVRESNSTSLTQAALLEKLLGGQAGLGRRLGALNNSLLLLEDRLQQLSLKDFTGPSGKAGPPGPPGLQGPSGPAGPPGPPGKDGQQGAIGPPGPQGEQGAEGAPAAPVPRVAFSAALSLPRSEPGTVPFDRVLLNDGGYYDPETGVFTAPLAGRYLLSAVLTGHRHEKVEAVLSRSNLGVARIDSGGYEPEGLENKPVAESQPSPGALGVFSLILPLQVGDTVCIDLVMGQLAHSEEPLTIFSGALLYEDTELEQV
# UniProt Q99JX4, whole entry: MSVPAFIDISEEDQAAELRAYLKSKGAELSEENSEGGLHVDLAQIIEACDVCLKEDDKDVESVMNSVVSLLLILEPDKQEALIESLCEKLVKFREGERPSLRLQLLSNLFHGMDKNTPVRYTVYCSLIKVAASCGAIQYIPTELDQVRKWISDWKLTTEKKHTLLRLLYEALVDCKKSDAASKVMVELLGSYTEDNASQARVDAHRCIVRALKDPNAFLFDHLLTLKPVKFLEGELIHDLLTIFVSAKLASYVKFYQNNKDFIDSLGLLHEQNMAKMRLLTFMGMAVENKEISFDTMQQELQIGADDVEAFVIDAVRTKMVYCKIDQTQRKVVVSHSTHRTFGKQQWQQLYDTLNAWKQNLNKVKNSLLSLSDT
# UniProt Q99K01: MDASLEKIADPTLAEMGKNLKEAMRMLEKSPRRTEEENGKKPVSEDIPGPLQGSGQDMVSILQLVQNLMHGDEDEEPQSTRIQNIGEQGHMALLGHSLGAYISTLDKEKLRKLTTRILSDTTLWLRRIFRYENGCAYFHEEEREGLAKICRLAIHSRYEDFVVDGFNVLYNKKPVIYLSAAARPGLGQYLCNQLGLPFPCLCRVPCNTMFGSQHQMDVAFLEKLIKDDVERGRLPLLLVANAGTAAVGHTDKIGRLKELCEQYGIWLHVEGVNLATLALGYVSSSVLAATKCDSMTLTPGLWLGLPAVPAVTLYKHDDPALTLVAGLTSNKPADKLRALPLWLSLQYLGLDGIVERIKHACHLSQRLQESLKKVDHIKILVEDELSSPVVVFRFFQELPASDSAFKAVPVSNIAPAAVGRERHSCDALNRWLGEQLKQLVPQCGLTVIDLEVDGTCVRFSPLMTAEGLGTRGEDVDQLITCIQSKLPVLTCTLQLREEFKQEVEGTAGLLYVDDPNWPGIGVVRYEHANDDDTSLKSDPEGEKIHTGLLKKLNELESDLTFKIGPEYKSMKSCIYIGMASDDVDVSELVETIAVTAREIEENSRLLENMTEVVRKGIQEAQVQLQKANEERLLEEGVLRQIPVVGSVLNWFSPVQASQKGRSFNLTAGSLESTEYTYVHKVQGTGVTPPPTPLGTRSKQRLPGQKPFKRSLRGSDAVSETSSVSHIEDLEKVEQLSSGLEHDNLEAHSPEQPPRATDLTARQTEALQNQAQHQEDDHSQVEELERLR
# UniProt Q99L00: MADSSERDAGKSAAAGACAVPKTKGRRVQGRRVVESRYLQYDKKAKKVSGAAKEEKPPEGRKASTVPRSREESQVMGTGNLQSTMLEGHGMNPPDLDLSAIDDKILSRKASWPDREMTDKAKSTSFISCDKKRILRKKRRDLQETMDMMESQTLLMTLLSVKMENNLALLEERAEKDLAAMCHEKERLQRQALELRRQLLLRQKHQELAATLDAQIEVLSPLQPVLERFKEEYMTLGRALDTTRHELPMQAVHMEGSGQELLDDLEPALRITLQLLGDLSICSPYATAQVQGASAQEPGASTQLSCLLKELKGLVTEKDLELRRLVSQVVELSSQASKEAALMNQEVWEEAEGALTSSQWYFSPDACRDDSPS
# UniProt Q920A5: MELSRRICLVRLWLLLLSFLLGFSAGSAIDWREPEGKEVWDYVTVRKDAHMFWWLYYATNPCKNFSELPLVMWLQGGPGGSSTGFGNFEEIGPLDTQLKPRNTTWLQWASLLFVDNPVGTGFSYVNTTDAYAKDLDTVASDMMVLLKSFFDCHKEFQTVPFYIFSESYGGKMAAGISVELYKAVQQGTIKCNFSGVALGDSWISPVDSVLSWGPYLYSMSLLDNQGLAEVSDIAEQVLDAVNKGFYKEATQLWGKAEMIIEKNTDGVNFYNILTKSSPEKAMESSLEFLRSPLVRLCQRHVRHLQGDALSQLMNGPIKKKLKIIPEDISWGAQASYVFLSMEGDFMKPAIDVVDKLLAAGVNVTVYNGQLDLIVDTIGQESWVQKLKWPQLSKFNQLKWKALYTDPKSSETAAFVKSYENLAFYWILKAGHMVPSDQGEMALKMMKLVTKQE
# UniProt Q99LI5: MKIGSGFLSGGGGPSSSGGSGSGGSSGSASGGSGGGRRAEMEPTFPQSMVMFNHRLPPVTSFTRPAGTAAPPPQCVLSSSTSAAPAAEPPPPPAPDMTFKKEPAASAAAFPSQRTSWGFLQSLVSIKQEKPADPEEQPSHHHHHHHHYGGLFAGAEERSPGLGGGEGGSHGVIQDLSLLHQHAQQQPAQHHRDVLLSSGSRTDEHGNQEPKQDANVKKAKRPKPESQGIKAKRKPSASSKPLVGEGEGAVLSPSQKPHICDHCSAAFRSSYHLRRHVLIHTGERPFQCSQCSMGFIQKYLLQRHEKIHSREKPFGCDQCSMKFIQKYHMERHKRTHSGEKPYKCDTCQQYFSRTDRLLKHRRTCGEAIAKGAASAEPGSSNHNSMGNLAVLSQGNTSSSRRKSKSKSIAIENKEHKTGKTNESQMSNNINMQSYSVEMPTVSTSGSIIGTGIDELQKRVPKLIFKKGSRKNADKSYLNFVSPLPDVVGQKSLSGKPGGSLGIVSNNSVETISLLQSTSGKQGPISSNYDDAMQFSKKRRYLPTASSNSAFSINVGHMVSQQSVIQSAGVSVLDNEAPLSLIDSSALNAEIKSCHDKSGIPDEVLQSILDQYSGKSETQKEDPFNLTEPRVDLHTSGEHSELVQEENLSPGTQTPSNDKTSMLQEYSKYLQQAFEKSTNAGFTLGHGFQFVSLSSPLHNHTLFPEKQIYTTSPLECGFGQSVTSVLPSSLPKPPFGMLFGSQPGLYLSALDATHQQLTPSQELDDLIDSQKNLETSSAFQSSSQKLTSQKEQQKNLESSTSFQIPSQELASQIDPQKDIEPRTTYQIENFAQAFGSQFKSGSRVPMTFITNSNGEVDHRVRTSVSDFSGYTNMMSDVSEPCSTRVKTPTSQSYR
# The list shows a part of the results. Most entries show no effect beyond the scatter of the controls.
# Compound: CN[C@@H]1C[C@H]2O[C@@](C)([C@@H]1OC)n1c3ccccc3c3c4c(c5c6ccccc6n2c5c31)C(=O)NC4 [staurosporine]
# Test: log2 fold change of tryptic peptide abundance, ligand vs vehicle (limited proteolysis) (log2 ratio); higher = more trypsin-susceptible (destabilized)
# Details: ligand concentration: 20 uM; sample: mouse liver crude lysate; replicate design: treated separately
row,Target,log2 fold change
1,"UniProt Q923M0 (peptide sequence: DKAHHTLAELKR, peptide start residue: 449)",-0.447
2,"UniProt Q923W1 (peptide sequence: YLDEMVR, peptide start residue: 131)",0.135
3,"UniProt Q99K41 (peptide sequence: QQQLVGPAMAR, peptide start residue: 338)",-0.176
4,"UniProt Q99LH2 (peptide sequence: DIHTTTGK, peptide start residue: 252)",1.03
5,"UniProt Q99JX4 (peptide sequence: VKNSLLSLSDT, peptide start residue: 364)",0.508
6,"UniProt Q99K01 (peptide sequence: ILSDTTLWLR, peptide start residue: 117)",0.16
7,"UniProt Q99L00 (peptide sequence: SAAAGACAVPK, peptide start residue: 12)",0.247
8,"UniProt Q920A5 (peptide sequence: EATQLWGK, peptide start residue: 248)",-0.0988
9,"UniProt Q99LI5 (peptide sequence: TDEHGNQEPK, peptide start residue: 202)",-0.599
